Data published in patent US20130195998A1, “THERAPEUTIC COMPOSITIONS” (priority 2012, published 2013).
At least one structure is not confirmed: it was looked up by name or label, or the drawing left a doubt.

Test system: Aspergillums
Experiment: Dog 'Gidi' with Aspergillums infected nostril, treatment outcome
Format: in vivo
Conditions: Itraconazole (Sporanox) alone, 50 mg, 2 times per day

CCC(C)n1ncn(-c2ccc(N3CCN(c4ccc(OCC5COC(Cn6cncn6)(c6ccc(Cl)cc6Cl)O5)cc4)CC3)cc2)c1=O (stereo not shown) [Itraconazole]
Outcome of treatment of Aspergillums infected nostril: fails
